{"sequences": {"note": "Sequences of proteins named here, by UniProt entry; tags and fusion partners are left off.", "UniProt P68400, whole entry": "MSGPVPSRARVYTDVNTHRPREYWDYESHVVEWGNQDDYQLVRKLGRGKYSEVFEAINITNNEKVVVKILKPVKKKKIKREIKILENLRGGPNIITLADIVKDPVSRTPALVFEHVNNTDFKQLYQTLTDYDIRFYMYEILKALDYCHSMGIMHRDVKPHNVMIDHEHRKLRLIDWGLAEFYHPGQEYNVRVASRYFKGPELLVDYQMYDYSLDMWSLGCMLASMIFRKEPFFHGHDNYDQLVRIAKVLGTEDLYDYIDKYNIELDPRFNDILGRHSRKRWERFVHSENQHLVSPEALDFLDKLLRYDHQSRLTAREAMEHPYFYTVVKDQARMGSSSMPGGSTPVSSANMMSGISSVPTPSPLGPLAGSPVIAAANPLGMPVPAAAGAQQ"}, "source": "patent US8158376B2", "about": "“Bisubstrate fluorescent probe binding to protein kinases” (University of Tartu, priority 2006, dated 2012)", "molecular_target": "CK2 (Homo sapiens, UniProt P68400)", "test": "Kinase selectivity panel", "type": "biochemical", "conditions": "inhibitor 1 μM; ATP 5 μM", "experimental": "The panel of kinases included all 52 kinases available for testing.\nThe assay of protein kinases was performed at 30° C. as described previously [Davies et al., Biochem. J. 351 (2000) 95; Murray et al., Biochem. J. 384 (2004) 477].", "note": "At least one structure is not confirmed: it was looked up by name or label, or the drawing left a doubt.", "data": [{"smiles": "N=C(N)NCCC[C@@H](NC(=O)[C@@H](CCCNC(=N)N)NC(=O)[C@@H](CCCNC(=N)N)NC(=O)[C@@H](CCCNC(=N)N)NC(=O)[C@@H](CCCNC(=N)N)NC(=O)[C@@H](CCCNC(=N)N)NC(=O)CCCCCNCCNS(=O)(=O)c1cccc2cnccc12)C(N)=O", "note": "[Compound 26, H9-Hex(D-Arg)6-NH2]", "values": [{"measurement": "residual activity (%) CK2", "value": "retained full activity"}]}]}
